# Experimental data: article PMC7819943, “Rice protein-binding microarrays: a tool to detect cis-acting elements near promoter regions in rice”
# Protein sequences, listed by entry. Tags and fused reporters are not part of them.
# UniProt Q0JBA9, entry or part of it: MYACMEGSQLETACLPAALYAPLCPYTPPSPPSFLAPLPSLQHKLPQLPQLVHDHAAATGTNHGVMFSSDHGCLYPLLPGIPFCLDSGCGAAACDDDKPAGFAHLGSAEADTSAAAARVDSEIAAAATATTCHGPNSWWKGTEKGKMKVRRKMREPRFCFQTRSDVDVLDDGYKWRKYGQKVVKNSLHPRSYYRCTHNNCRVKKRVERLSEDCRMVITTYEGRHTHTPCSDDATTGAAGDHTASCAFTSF
# The other results are listed elsewhere or left out.
# Target: OsWRKY34 (Oryza sativa, UniProt Q0JBA9 1-250)
# Assay: protein-binding microarray (RPBM); PBS, 2% BSA, 51.3 ng/ul salmon testes DNA, 50 uM zinc acetate, 200 nM TF, 25 C, 1 h; high values mean tight binding
# Conditions: protein: recombinant; tags: N-terminal polyhistidine and DsRed monomer fusion (pET32a); label: CyDye5-dUTP incorporated in the synthesized complementary strand; 3' TTTTT single-stranded linker to array surface; dsDNA, one strand shown
# Procedure, shortened: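 An Axon 4000B scanner gave the binding signal as per-feature fluorescence intensity in arbitrary units. This followed washing of a custom Agilent array that had been incubated for 1 h at 25 °C with 200 nM protein in PBS, 2% BSA, salmon testes DNA and 50 µM zinc acetate. The proteins were transcription factors fused at the N-terminus to polyhistidine and DsRed, expressed in E. coli BL21-CodonPlus and purified on Ni–NTA.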
row,Sequence,binding signal
1,ATATCTCTCTCTGCTTACCCATGCGTACTCATGCCGTTGTCGGAGTCACCTAGTGCAG,11900 fluorescence intensity (a.u.)
2,AAATACCTCGGAACCACGGTGTCGTTATCCCCGCGTCGCGCGGAGTCACCTAGTGCAG,8600 fluorescence intensity (a.u.)
3,GTATCCATTCCTGCAAATCCAAGTTGGCAATTCCGAGGGCCGGAGTCACCTAGTGCAG,8310 fluorescence intensity (a.u.)
4,CCACCATTCTTTTATTGATTTATGTGTGAGACTGACATGTCGGAGTCACCTAGTGCAG,8420 fluorescence intensity (a.u.)
5,CCCTTCTCACCCCTTGCCTTGGCCTCCTTGCTATCATCCTCGGAGTCACCTAGTGCAG,9120 fluorescence intensity (a.u.)
6,CGTTATTGCTGATGTAGGTTTACCACAGGCTAAGCTAGCCCGGAGTCACCTAGTGCAG,8700 fluorescence intensity (a.u.)
7,AACCTATCGGAACGGCAGCTCGCCGCCCCACCAACCCAAACGGAGTCACCTAGTGCAG,8350 fluorescence intensity (a.u.)
8,CAACACAATGACCATTAACATATCAGTCACAGCTCTTATTCGGAGTCACCTAGTGCAG,8840 fluorescence intensity (a.u.)
9,CTTTTTTTTCACAAATGCTATTGTAGTTCTTCATTTTTAACGGAGTCACCTAGTGCAG,9360 fluorescence intensity (a.u.)
10,GCGGGGAACTTAACTAAAAATTCCTACACCCCTTTTGAGTCGGAGTCACCTAGTGCAG,8360 fluorescence intensity (a.u.)
11,ACGCATCCCACGCCGCCGTGCCGCCCTCTCTCTCACGCATCGGAGTCACCTAGTGCAG,8270 fluorescence intensity (a.u.)
12,CTCGCCCTTGATTGGTTCGATACACGTTTTCCCCTCGTTTCGGAGTCACCTAGTGCAG,8640 fluorescence intensity (a.u.)
13,CTTTCGTTGGCATATTTGTTTTTGTACATCATTTCTAAACCGGAGTCACCTAGTGCAG,10800 fluorescence intensity (a.u.)
14,TTTTTATGGCTAAAACATGCAAAACCTGACTTTGCATCATCGGAGTCACCTAGTGCAG,8160 fluorescence intensity (a.u.)
15,GTGATATATGTGATTGACCAAACATACAGGTACAGTAATTCGGAGTCACCTAGTGCAG,9240 fluorescence intensity (a.u.)
16,GCTCTTGCCTATTCCGTGCTTTGAGATTCGGGCGCTCTCTCGGAGTCACCTAGTGCAG,8630 fluorescence intensity (a.u.)
17,AGTCCTTGCCAATTATAACCTTCATTCATTTTTCTAATCCCGGAGTCACCTAGTGCAG,8550 fluorescence intensity (a.u.)
18,CATTCTTCCATAGGGACGACTATGTTTTTCAATTCTACTACGGAGTCACCTAGTGCAG,8510 fluorescence intensity (a.u.)
19,CGCTGCTTTCGATTCCCCTGACCGCCCCGCGTAGCCGCCGCGGAGTCACCTAGTGCAG,8910 fluorescence intensity (a.u.)
20,CTGGCATGTTACTTTTTCTGTTTGTATCTTTTCTTTCTTTCGGAGTCACCTAGTGCAG,13900 fluorescence intensity (a.u.)
21,CACCATTAGCATCATTTAAAGTATAAGGTCCCATTTGATTCGGAGTCACCTAGTGCAG,8040 fluorescence intensity (a.u.)

row,Sequence,binding signal
1,TTTAAATGTATCATGTCATTGACTTTTTTATAATATTTGACGGAGTCACCTAGTGCAG,8120 fluorescence intensity (a.u.)
2,ACATCGTTTTTCGCTCAATGTTGCCACGCTGGCATGCCACCGGAGTCACCTAGTGCAG,9760 fluorescence intensity (a.u.)
3,TATGCGCAGAACATGAGGGAGGGGTTGGGAACACTTAACACGGAGTCACCTAGTGCAG,13000 fluorescence intensity (a.u.)
4,CGCGCCACTCTCATCCGCCTCCGCATATGTCGGCCTCGTGCGGAGTCACCTAGTGCAG,8580 fluorescence intensity (a.u.)
5,TACAAGTATCGTTTATTTTTGTTATAACTTGTTTTAATCACGGAGTCACCTAGTGCAG,10700 fluorescence intensity (a.u.)
6,CTCCTCCACCCACCCACACTTCACACTTCTTGTTTGATCACGGAGTCACCTAGTGCAG,8830 fluorescence intensity (a.u.)
7,ACTCCCCTCCCCGCCACGTCGCCATTCTTCCCGCTCCTGACGGAGTCACCTAGTGCAG,9750 fluorescence intensity (a.u.)
8,GGGGTGGGCGGAGGGAGCAGGTGATACTGCCACCCTCGTACGGAGTCACCTAGTGCAG,9150 fluorescence intensity (a.u.)
9,ATGTATCTTATGCATACTCACTGCACGTATGCACGTCACACGGAGTCACCTAGTGCAG,9200 fluorescence intensity (a.u.)
10,TCTATGCTGATTAATTTTTTCTTGTTCTGTCCCTATTAACCGGAGTCACCTAGTGCAG,9360 fluorescence intensity (a.u.)
11,CCAACGTATGTGTACAACCGTCCCCAAGCTTCTGATTATCCGGAGTCACCTAGTGCAG,8080 fluorescence intensity (a.u.)
12,ATGACCTTGCATGCCATTTCTATATTAAGCATCTTATCGTCGGAGTCACCTAGTGCAG,9680 fluorescence intensity (a.u.)
13,CCTCCCGCCTCTACTCCACGCTACCGCTGCTGCTGCTGCTCGGAGTCACCTAGTGCAG,8360 fluorescence intensity (a.u.)
14,TCATTCGTAAGGCCGTCAGCAATATCTTCTATAGGTTCGTCGGAGTCACCTAGTGCAG,8270 fluorescence intensity (a.u.)
15,TACGGACTTCTTCCAAGTTTTATTGTGTACTACATCTTTTCGGAGTCACCTAGTGCAG,8890 fluorescence intensity (a.u.)
16,CCCACCATTTTATATTATAAGCTGTTTGACTTTTTCTTAACGGAGTCACCTAGTGCAG,13100 fluorescence intensity (a.u.)
17,GTGGCGCCGAGGGAGGGGAACGCCGGTGTGGGGAGGGCGGCGGAGTCACCTAGTGCAG,11600 fluorescence intensity (a.u.)
18,TTTCTACGTCTAGGTTAAGCCCATAGTCTCATACTCTCACCGGAGTCACCTAGTGCAG,8420 fluorescence intensity (a.u.)
19,CCATCCGGCGAGCAGGGGAGGGGAGGGTCGCTGATCTCCACGGAGTCACCTAGTGCAG,11700 fluorescence intensity (a.u.)
20,GTGGTACTAGAGGGATGTGCATGCTTGATTTGAAGACATACGGAGTCACCTAGTGCAG,8390 fluorescence intensity (a.u.)
21,TACCCTACACCTGCACTACATTTGTCATGCGCAATTTCATCGGAGTCACCTAGTGCAG,10600 fluorescence intensity (a.u.)

# Given tab-delimited: entries from further up.
row	Sequence	binding signal
9	CTTTTTTTTCACAAATGCTATTGTAGTTCTTCATTTTTAACGGAGTCACCTAGTGCAG	9360 fluorescence intensity (a.u.)
10	GCGGGGAACTTAACTAAAAATTCCTACACCCCTTTTGAGTCGGAGTCACCTAGTGCAG	8360 fluorescence intensity (a.u.)
